Results from US20040091475A1 (Chugai, published 2004).
No constants are given. Whether binding was seen depends on the method and setting. Some entries that bind do so weakly or less than the wild type.

The chains behind the UniProt entries cited, without tags or fusion partners. Residues count along the entry.
UniProt Q08722, residues 19-323: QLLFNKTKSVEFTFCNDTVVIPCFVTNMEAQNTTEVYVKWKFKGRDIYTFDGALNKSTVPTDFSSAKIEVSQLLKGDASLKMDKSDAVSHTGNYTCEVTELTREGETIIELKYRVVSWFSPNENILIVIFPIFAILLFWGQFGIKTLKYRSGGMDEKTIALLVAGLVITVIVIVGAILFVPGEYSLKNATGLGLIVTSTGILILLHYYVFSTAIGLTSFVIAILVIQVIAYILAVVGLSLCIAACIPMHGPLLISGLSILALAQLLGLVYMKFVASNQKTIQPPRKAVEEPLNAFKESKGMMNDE

Legend:
[1] = molecular target: human Integrin Associated Protein (IAP) expressed on mouse leukemia cell line L1210 (human) (UniProt Q08722); experiment: flow cytometry, FIGS. 40a and 40b
[2] = molecular target: human Integrin Associated Protein (IAP) expressed on mouse leukemia cell line L1210 (human) (UniProt Q08722); experiment: flow cytometry, COS7 supernatant on L1210 cells expressing human IAP, anti-FLAG detection
[3] = molecular target: human Integrin Associated Protein (IAP) expressed on mouse leukemia cell line L1210 (human) (UniProt Q08722); experiment: flow cytometry on L1210 cells expressing human IAP; COS7 culture supernatant; mouse anti-FLAG antibody, then FITC-labeled anti-mouse IgG antibody

B1: MABL2-scFv <LH-0> (scFv)
scFv: DVVMTQSPLSLPVSLGDQASISCRSSQSLVHSNGKTYLHWYLQKPGQSPKLLIYKVSNRFSGVPDRFSGSGSVTDFTLMISRVEAEDLGVYFCSQSTHVPYTFGGGTKLEIKQVQLQQSGPELVKPGASVKMSCKASGYTFANHVIHWVKQKPGQGLEWIGYIYPYNDGTKYNEKFKDKATLTSDKSSTTAYMDLSSLASEDSAVYYCARGGYYTYDDWGQGTTLTVSSDYKDDDDK
[1]
  binding: binds
[2]
  binding: binds
[3]
  binding: binds

B2: MABL2-scFv <LH-3> (scFv)
scFv: DVVMTQSPLSLPVSLGDQASISCRSSQSLVHSNGKTYLHWYLQKPGQSPKLLIYKVSNRFSGVPDRFSGSGSVTDFTLMISRVEAEDLGVYFCSQSTHVPYTFGGGTKLEIKSGGQVQLQQSGPELVKPGASVKMSCKASGYTFANHVIHWVKQKPGQGLEWIGYIYPYNDGTKYNEKFKDKATLTSDKSSTTAYMDLSSLASEDSAVYYCARGGYYTYDDWGQGTTLTVSSDYKDDDDK
[1]
  binding: binds
[2]
  binding: binds
[3]
  binding: binds

B3: MABL2-scFv <LH-4> (scFv)
scFv: DVVMTQSPLSLPVSLGDQASISCRSSQSLVHSNGKTYLHWYLQKPGQSPKLLIYKVSNRFSGVPDRFSGSGSVTDFTLMISRVEAEDLGVYFCSQSTHVPYTFGGGTKLEIKSGGGQVQLQQSGPELVKPGASVKMSCKASGYTFANHVIHWVKQKPGQGLEWIGYIYPYNDGTKYNEKFKDKATLTSDKSSTTAYMDLSSLASEDSAVYYCARGGYYTYDDWGQGTTLTVSSDYKDDDDK
[1]
  binding: binds
[2]
  binding: binds
[3]
  binding: binds

B4: MABL2-scFv <LH-6> (scFv)
scFv: DVVMTQSPLSLPVSLGDQASISCRSSQSLVHSNGKTYLHWYLQKPGQSPKLLIYKVSNRFSGVPDRFSGSGSVTDFTLMISRVEAEDLGVYFCSQSTHVPYTFGGGTKLEIKSGGGGGQVQLQQSGPELVKPGASVKMSCKASGYTFANHVIHWVKQKPGQGLEWIGYIYPYNDGTKYNEKFKDKATLTSDKSSTTAYMDLSSLASEDSAVYYCARGGYYTYDDWGQGTTLTVSSDYKDDDDK
[1]
  binding: binds
[2]
  binding: binds
[3]
  binding: binds

B5: MABL2-scFv <LH-7> (scFv)
scFv: DVVMTQSPLSLPVSLGDQASISCRSSQSLVHSNGKTYLHWYLQKPGQSPKLLIYKVSNRFSGVPDRFSGSGSVTDFTLMISRVEAEDLGVYFCSQSTHVPYTFGGGTKLEIKSGGGGGGQVQLQQSGPELVKPGASVKMSCKASGYTFANHVIHWVKQKPGQGLEWIGYIYPYNDGTKYNEKFKDKATLTSDKSSTTAYMDLSSLASEDSAVYYCARGGYYTYDDWGQGTTLTVSSDYKDDDDK
[1]
  binding: binds
[2]
  binding: binds
[3]
  binding: binds

B6: MABL2-scFv <HL-0> (scFv)
scFv: QVQLQQSGPELVKPGASVKMSCKASGYTFANHVIHWVKQKPGQGLEWIGYIYPYNDGTKYNEKFKDKATLTSDKSSTTAYMDLSSLASEDSAVYYCARGGYYTYDDWGQGTTLTVSSDVVMTQSPLSLPVSLGDQASISCRSSQSLVHSNGKTYLHWYLQKPGQSPKLLIYKVSNRFSGVPDRFSGSGSVTDFTLMISRVEAEDLGVYFCSQSTHVPYTFGGGTKLEIKDYKDDDDK
[1]
  binding: binds
[2]
  binding: binds
[3]
  binding: binds

B7: MABL2-scFv <HL-3> (scFv)
scFv: QVQLQQSGPELVKPGASVKMSCKASGYTFANHVIHWVKQKPGQGLEWIGYIYPYNDGTKYNEKFKDKATLTSDKSSTTAYMDLSSLASEDSAVYYCARGGYYTYDDWGQGTTLTVSSGGSDVVMTQSPLSLPVSLGDQASISCRSSQSLVHSNGKTYLHWYLQKPGQSPKLLIYKVSNRFSGVPDRFSGSGSVTDFTLMISRVEAEDLGVYFCSQSTHVPYTFGGGTKLEIKDYKDDDDK
[1]
  binding: binds
[2]
  binding: binds
[3]
  binding: binds

B8: MABL2-scFv <HL-4> (scFv)
scFv: QVQLQQSGPELVKPGASVKMSCKASGYTFANHVIHWVKQKPGQGLEWIGYIYPYNDGTKYNEKFKDKATLTSDKSSTTAYMDLSSLASEDSAVYYCARGGYYTYDDWGQGTTLTVSSGGGSDVVMTQSPLSLPVSLGDQASISCRSSQSLVHSNGKTYLHWYLQKPGQSPKLLIYKVSNRFSGVPDRFSGSGSVTDFTLMISRVEAEDLGVYFCSQSTHVPYTFGGGTKLEIKDYKDDDDK
[1]
  binding: binds
[2]
  binding: binds
[3]
  binding: binds

B9: MABL2-scFv <HL-6> (scFv)
scFv: QVQLQQSGPELVKPGASVKMSCKASGYTFANHVIHWVKQKPGQGLEWIGYIYPYNDGTKYNEKFKDKATLTSDKSSTTAYMDLSSLASEDSAVYYCARGGYYTYDDWGQGTTLTVSSGGGGGSDVVMTQSPLSLPVSLGDQASISCRSSQSLVHSNGKTYLHWYLQKPGQSPKLLIYKVSNRFSGVPDRFSGSGSVTDFTLMISRVEAEDLGVYFCSQSTHVPYTFGGGTKLEIKDYKDDDDK
[1]
  binding: binds
[2]
  binding: binds
[3]
  binding: binds

B10: MABL2-scFv <HL-7> (scFv)
scFv: QVQLQQSGPELVKPGASVKMSCKASGYTFANHVIHWVKQKPGQGLEWIGYIYPYNDGTKYNEKFKDKATLTSDKSSTTAYMDLSSLASEDSAVYYCARGGYYTYDDWGQGTTLTVSSGGGGGGSDVVMTQSPLSLPVSLGDQASISCRSSQSLVHSNGKTYLHWYLQKPGQSPKLLIYKVSNRFSGVPDRFSGSGSVTDFTLMISRVEAEDLGVYFCSQSTHVPYTFGGGTKLEIKDYKDDDDK
[1]
  binding: binds
[2]
  binding: binds
[3]
  binding: binds

B11: MABL2-scFv <HL-5> (scFv)
scFv: QVQLQQSGPELVKPGASVKMSCKASGYTFANHVIHWVKQKPGQGLEWIGYIYPYNDGTKYNEKFKDKATLTSDKSSTTAYMDLSSLASEDSAVYYCARGGYYTYDDWGQGTTLTVSSGGGGSDVVMTQSPLSLPVSLGDQASISCRSSQSLVHSNGKTYLHWYLQKPGQSPKLLIYKVSNRFSGVPDRFSGSGSVTDFTLMISRVEAEDLGVYFCSQSTHVPYTFGGGTKLEIKDYKDDDDK
[1]
  binding: binds
[2]
  binding: binds

B12: MABL2-scFv <LH-5> (scFv)
scFv: DVVMTQSPLSLPVSLGDQASISCRSSQSLVHSNGKTYLHWYLQKPGQSPKLLIYKVSNRFSGVPDRFSGSGSVTDFTLMISRVEAEDLGVYFCSQSTHVPYTFGGGTKLEIKSGGGGQVQLQQSGPELVKPGASVKMSCKASGYTFANHVIHWVKQKPGQGLEWIGYIYPYNDGTKYNEKFKDKATLTSDKSSTTAYMDLSSLASEDSAVYYCARGGYYTYDDWGQGTTLTVSSDYKDDDDK
[1]
  binding: binds
[2]
  binding: binds
